Source: article PMC12110804, “Molecular Characterization and Functional Analysis of Odorant-Binding Proteins in Ectropis grisescens” (International Journal of Molecular Sciences, 2025)
A number of entries come with more than one value. This is not the full list of results. An entry can have further records. The values listed for one entry differ, and nothing given here explains why; dose, time, organism, isomer or construct need not be as stated for each record.

By UniProt entry, the sequences of proteins in these tests, tags left out. Residues count along the entry.
UniProt A0A977IVV0, 52-196 limits assumed: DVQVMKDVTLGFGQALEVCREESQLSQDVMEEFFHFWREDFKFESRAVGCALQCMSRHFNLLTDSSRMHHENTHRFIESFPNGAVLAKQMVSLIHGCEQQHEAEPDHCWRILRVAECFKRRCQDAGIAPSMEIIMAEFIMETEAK

Target: EgriGOBP2 (Ectropis grisescens, UniProt A0A977IVV0)
Assay: Fluorescence competitive binding assay (1-NPN displacement) with recombinant EgriGOBP2
Settings: read-out: EgriGOBP2 Ki; Ki = [IC50]/(1 + [1-NPN]/K1-NPN); 2 µM EgriGOBP2/1-NPN mixture, pH 7.4

In the case of `C=C(C)[C@H]1CC=C(C)C(=O)C1` [(S)-(+)-carvone], the Ki is reported as < 10 µM and 4.84 µM.
